Results as given in patent US20030119102A1.
No constants are given. Whether binding was seen depends on the method and setting. For some assays here: In cells and extracts the contact can be indirect. Some entries that bind do so weakly or less than the wild type.

Experiments:
[1] = target: T1, rat Kv4.2 α-subunit (rat) (UniProt Q63881); experiment: immunoprecipitation from rat brain membranes
T1 sequence (looked up): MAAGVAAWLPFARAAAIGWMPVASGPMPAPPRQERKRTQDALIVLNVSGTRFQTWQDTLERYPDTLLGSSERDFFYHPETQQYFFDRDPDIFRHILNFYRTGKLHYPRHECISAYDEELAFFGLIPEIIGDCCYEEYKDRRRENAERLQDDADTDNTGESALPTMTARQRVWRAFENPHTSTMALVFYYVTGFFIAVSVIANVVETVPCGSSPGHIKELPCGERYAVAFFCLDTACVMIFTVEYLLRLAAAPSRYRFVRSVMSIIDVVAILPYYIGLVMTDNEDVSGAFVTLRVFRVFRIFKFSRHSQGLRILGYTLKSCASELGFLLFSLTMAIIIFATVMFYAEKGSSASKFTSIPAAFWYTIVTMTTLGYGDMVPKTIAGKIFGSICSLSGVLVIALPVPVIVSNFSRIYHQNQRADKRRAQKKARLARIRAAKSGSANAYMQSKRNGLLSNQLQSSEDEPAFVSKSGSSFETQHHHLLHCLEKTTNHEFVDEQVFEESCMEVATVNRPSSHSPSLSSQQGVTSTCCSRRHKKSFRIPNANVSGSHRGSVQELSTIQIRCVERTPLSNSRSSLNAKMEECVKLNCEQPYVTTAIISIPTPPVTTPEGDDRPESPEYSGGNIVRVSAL

[2] = target: T2, rat Kv4.3 α-subunit (rat) (UniProt Q62897); experiment: immunoprecipitation from rat brain membranes
T2 sequence (looked up): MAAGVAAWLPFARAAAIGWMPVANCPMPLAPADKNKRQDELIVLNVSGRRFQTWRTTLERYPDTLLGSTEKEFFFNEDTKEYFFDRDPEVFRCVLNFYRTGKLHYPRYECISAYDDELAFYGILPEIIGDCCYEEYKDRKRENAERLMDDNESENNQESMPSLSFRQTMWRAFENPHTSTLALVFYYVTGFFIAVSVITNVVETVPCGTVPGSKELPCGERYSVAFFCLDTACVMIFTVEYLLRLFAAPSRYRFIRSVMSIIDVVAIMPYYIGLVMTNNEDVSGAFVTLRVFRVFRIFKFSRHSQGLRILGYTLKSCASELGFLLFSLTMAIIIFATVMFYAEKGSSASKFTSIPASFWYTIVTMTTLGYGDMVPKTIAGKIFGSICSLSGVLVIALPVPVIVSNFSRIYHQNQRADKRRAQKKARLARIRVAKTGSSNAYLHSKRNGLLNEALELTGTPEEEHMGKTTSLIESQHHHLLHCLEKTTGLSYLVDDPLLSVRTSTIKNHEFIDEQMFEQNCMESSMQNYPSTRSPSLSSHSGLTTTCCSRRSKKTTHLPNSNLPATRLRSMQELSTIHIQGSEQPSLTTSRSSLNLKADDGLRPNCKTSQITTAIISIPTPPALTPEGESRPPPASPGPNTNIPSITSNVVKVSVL

[3] = target: T1, rat Kv4.2 α-subunit (rat); experiment: immunofluorescence of cotransfected COS-1 and CHO cells
[4] = target: T2, rat Kv4.3 α-subunit (rat); experiment: as above
[5] = target: T3, {GAL4 DNA-binding domain}-{rKv4.3(1-180)} fusion (rat) (UniProt P04386+Q62897); experiment: yeast two-hybrid screen, retransformation and specificity tests
[6] = target: T1, rat Kv4.2 α-subunit (rat); experiment: reciprocal co-immunoprecipitation from rat brain synaptic membranes
[7] = target: T2, rat Kv4.3 α-subunit (rat); experiment: as above
[8] = target: T1, rat Kv4.2 α-subunit (rat); experiment: reciprocal co-immunoprecipitation from lysates of cotransfected cells
[9] = target: T2, rat Kv4.3 α-subunit (rat); experiment: as above
[10] = target: T4, chimeric Kv4.3 subunit (Kv4.3ch) (rat) (UniProt Q62897); experiment: triple-label immunofluorescence and reciprocal co-immunoprecipitation, COS-1 cells
T4 sequence: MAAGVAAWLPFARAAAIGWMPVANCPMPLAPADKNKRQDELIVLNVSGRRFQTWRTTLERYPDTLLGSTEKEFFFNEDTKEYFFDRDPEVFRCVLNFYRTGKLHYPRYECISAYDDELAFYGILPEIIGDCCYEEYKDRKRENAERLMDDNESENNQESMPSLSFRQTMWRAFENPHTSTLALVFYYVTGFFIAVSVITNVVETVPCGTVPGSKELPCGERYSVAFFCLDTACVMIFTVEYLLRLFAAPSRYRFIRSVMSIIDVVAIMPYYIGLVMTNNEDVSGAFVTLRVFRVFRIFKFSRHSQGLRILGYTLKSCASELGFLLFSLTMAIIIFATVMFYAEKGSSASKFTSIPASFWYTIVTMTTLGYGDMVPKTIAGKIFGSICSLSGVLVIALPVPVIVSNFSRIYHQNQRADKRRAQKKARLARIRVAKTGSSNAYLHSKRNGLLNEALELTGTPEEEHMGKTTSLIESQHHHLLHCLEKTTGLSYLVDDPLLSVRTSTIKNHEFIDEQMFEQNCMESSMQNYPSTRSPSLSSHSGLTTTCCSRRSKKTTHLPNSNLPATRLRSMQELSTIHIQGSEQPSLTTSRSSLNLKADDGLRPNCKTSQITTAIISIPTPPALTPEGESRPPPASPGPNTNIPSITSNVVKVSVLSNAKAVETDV

rKv4.2N (rat) = target: T5, rKv4.2N (rat) (UniProt Q63881); experiment: yeast two-hybrid
T5 sequence (looked up): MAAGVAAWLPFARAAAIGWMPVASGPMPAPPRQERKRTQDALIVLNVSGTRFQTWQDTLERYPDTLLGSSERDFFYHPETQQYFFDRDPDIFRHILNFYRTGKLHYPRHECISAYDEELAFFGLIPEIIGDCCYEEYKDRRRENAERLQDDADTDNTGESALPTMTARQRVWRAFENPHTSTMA

[11] = target: T3, {GAL4 DNA-binding domain}-{rKv4.3(1-180)} fusion (rat); experiment: yeast two-hybrid
[12] = target: T3, {GAL4 DNA-binding domain}-{rKv4.3(1-180)} fusion (rat); experiment: yeast two-hybrid screen

Measured: binding

B1: rat 1v (protein)
chain: MPARVLLAYPGTEMLTQGESEGLQTLGIVVVLCSSLKLLHYLGLIDLSDDKIEDDLEMTMVCHRPEGLEQLEAQTNFTKRELQVLYRGFKNECPSGVVNEETFKQIYAQFFPHGDASTYAHYLFNAFDTTQTGSVKFEDFVTALSILLRGTVHEKLRWTFNLYDINKDGYINKEEMMDIVKAIYDMMGKYTYPVLKEDTPRQHVDVFFQKMDKNKDGIVTLDEFLESCQEDDNIMRSLQLFQNVM
not listed: rKv4.2N (rat) | [11] | [12]
binds: all other assays above

B2: rat 8t (protein)
chain: MNHCPRRCRSPLGQAARSLYQLVTGSLSPDSVEDEFELSTVCHRPEGLEQLQEQTKFTRRELQVLYRGFKNECPSGIVNEENFKQIYSQFFPQGDSSNYATFLFNAFDTNHDGSVSFEDFVAGLSVILRGTIDDRLSWAFNLYDLNKDGCITKEEMLDIMKSIYDMMGKYTYPALREEAPREHVESFFQKMDRNKDGVVTIEEFIESCQQDENIMRSMQLFDNVI
binds: [5]

B3: rat 29x (protein)
chain: ARLPAPEHARQQPLLSGPEPGSSARVPVPGVASRRQPRGGKPPSGDGLESGPSPRPLLHARGEAGLHRQSGRVPHTGTAYFADEPTEAQAPGGFCVSPSLLGVRWPACATRTPGSLPLSPPSAQPRTLWPTPPAGPSSRMVARNQVAADNAISPASEPRRRPEPSSSSSSSSPAAPARPRPCPVVPAPAPGDTHFRTFRSHSDYRRITRTSALLDACGFYWGPLSVHGAHERLRAEPVGTFLVRDSRQRNCFFALSVKMASGPTSIRVHFQAGRFHLDGSRETFDCLFELLEHYVAAPRRMLGAPLRQRRVRPLQELCRQRIVAAVGRENLARIPLNPVLRDYLSSFPFQI
binds: rKv4.2N (rat) | [11] | [12]
